The target in experiment [1] is BCL11B protein, MBP-tag-fused recombinant (pETMBP.3C-Bcl11b) (mouse) (UniProt Q99PV8). Put plainly: SPR; Bcl11b immobilised on CM5 chip (10 mM sodium acetate pH 5.0); analytes serially diluted in PBST (PBS, 0.05% Tween-20), 30 μL/min for 2 min; 25 °C; Biacore 8K plus; both purified. A general note: Surface plasmon resonance follows binding to a sensor surface in real time, without labels.

By UniProt entry, the sequences of proteins in these tests, tags left out. Where a name states a change or a piece, a line headed by the entry shows the natural chain unless it says otherwise.
UniProt Q99PV8: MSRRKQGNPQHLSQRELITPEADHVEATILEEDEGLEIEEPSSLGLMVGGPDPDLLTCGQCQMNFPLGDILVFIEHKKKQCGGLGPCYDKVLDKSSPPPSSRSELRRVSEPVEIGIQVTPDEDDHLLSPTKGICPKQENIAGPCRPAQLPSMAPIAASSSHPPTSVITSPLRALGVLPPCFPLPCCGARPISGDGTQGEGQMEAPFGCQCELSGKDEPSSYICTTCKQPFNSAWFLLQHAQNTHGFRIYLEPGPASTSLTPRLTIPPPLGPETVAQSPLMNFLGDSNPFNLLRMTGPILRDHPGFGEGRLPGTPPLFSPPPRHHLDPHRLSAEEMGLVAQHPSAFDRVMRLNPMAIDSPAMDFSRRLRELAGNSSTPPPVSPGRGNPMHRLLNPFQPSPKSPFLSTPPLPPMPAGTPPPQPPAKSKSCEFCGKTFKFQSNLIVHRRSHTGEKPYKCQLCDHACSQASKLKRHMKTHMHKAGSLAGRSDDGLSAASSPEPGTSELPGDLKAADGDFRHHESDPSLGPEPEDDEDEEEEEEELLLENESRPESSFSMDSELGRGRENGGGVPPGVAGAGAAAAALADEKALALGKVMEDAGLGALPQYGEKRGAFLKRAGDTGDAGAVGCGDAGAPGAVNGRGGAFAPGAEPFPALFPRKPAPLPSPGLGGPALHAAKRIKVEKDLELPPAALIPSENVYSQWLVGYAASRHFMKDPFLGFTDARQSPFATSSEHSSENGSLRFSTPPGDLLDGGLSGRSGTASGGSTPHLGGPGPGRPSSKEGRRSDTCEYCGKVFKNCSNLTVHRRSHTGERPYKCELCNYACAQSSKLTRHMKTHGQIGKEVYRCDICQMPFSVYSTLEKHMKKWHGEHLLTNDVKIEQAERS
UniProt Q02248: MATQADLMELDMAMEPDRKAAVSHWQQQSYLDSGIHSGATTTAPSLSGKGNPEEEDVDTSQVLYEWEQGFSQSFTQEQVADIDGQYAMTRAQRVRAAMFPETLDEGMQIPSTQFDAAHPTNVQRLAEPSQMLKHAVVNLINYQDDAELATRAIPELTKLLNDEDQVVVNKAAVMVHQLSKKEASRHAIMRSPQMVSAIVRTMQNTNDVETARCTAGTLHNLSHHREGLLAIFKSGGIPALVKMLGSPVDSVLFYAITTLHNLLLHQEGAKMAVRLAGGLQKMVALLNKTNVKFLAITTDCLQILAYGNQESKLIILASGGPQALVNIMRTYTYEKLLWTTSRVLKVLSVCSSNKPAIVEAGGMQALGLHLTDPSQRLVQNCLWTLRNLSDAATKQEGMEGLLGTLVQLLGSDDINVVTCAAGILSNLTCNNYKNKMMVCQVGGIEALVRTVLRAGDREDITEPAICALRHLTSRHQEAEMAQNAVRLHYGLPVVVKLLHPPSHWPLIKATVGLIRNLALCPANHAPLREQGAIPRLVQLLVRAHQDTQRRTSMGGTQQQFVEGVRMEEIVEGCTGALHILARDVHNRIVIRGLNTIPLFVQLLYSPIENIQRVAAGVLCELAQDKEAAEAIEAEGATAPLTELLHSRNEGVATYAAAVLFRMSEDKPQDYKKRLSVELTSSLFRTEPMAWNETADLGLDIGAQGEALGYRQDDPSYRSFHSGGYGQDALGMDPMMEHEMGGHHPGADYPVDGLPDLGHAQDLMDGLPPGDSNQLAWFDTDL
UniProt Q924A0: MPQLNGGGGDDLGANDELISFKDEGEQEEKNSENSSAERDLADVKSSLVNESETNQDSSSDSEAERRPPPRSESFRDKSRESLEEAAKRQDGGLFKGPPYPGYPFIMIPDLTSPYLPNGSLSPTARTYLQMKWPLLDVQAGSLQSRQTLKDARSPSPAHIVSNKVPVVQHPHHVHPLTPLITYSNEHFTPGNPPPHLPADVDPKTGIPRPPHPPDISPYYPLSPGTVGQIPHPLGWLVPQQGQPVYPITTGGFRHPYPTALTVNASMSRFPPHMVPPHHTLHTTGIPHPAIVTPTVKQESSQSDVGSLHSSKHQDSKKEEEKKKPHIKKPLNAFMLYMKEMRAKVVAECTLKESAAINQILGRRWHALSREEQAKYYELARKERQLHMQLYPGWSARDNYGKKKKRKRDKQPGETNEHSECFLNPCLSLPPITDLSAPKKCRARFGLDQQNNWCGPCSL
UniProt O09106: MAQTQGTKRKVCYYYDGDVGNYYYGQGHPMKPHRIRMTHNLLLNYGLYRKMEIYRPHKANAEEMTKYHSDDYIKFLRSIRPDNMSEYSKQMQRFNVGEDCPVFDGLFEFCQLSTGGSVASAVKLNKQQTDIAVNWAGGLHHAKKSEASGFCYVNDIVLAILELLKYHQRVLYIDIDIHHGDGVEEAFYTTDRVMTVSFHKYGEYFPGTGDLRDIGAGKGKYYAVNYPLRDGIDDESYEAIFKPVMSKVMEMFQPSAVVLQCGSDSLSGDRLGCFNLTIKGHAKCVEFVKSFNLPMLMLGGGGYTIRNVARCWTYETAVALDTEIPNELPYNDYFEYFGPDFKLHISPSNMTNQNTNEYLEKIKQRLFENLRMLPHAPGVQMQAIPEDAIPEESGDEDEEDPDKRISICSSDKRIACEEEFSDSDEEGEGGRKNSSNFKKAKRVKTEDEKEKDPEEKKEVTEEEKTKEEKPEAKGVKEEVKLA

The target of experiment [2] is Bcl11b-Flag (mouse Bcl11b fused with Flag tag, doxycycline-induced in intestinal organoids) (mouse) (UniProt Q99PV8). Put plainly: co-IP; lysate of doxycycline-induced (3 days) Bcl11b-Flag organoids; anti-Flag antibody on Dynabeads Protein A/G, overnight 4 °C; IP lysis buffer 10 mM Tris-HCl pH 7.5, 100 mM NaCl, 0.5% NP-40, 1 mM EDTA; immunoblotting. Background: Immunoblotting shows a protein as a band on a membrane.

Experiment [3] addresses Bcl11b, ectopically overexpressed (experiments of Appendix Fig. S4) (mouse) (UniProt Q99PV8). Put plainly: co-IP; Appendix Fig. S4B-D; ectopically overexpressed Bcl11b, with or without Wnt3a; cells and constructs in the legend, not shown.

The record followed here is paper PMC11612440.

Results are given in words; binding and its absence hold for the method and conditions named. For some assays here: In cells and extracts the contact can be indirect. Some results given as binding are weak or reduced against the parent protein; the word gives no strength.

“β-catenin, MBP-tag-fused recombinant (pETMBP.3C-β-catenin) (from UniProt Q02248 1-781)”: in experiment [1], the binding result is “binds”.

As for “TCF4, endogenous (mouse intestinal organoids and crypts) (from UniProt Q924A0 1-459)”, in experiment [2], the binding result was “binds”.

As for “β-catenin (experiments of Appendix Fig. S4B-D) (from UniProt Q02248 1-781)”, in experiment [3], the binding entry was “binds”.

With “HDAC1, MBP-tag-fused recombinant (pETMBP.3C-Hdac1) (from UniProt O09106 1-482)”, in experiment [1], the binding entry is reported as “binds”.

For “β-catenin, endogenous (mouse intestinal organoids and crypts) (from UniProt Q02248 1-781)”, the binding entry in experiment [2] is recorded as “binds”.
